Assay results published in patent US7550431B2, “Spatially-defined macrocycles incorporating peptide bond surrogates” (Tranzyme Pharma Inc., priority 2003, dated 2009).
The match of structure and compound is tentative.

The chains behind the UniProt entries cited, without tags or fusion partners.
UniProt O43193, whole entry: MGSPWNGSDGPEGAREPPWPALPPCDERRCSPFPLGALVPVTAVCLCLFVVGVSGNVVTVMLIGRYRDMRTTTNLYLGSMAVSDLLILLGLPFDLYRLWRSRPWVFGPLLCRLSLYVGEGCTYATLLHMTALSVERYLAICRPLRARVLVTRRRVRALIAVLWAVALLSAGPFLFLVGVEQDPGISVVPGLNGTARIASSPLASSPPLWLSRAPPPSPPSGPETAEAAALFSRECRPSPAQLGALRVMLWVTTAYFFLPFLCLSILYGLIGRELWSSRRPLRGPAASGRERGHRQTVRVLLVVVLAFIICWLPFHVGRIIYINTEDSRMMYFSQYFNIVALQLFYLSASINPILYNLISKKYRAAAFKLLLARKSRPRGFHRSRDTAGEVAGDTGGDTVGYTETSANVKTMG

Biological target: human motilin receptor (Homo sapiens, UniProt O43193)
Experiment: Competitive radioligand binding assay (motilin receptor), Method B1
Conditions: read-out: Binding Activity [Ki (nM)], [125I]-motilin competition, CHO cell membranes

Ki: 100 to 1000 nM
Compound: CC(C)[C@H]1CC[C@@H](Cc2cccc(Cl)c2)NCCOc2ccccc2CCCNC(=O)[C@H](CN(C)C)NC1=O
